Reference: publication PMC9581539
No constants are given. Whether binding was seen depends on the method and setting. In cells and extracts the contact can be indirect. Here binding means that the protein was enriched with, or labelled near, the bait; the list need not be complete.

Protein sequences, listed by entry. Tags and fused reporters are not part of them. Residues count along the entry.
UniProt P50552, residues 1-113: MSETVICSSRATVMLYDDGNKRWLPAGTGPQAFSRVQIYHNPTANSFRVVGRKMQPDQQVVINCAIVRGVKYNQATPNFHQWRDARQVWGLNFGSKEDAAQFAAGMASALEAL
UniProt Q8CBW3: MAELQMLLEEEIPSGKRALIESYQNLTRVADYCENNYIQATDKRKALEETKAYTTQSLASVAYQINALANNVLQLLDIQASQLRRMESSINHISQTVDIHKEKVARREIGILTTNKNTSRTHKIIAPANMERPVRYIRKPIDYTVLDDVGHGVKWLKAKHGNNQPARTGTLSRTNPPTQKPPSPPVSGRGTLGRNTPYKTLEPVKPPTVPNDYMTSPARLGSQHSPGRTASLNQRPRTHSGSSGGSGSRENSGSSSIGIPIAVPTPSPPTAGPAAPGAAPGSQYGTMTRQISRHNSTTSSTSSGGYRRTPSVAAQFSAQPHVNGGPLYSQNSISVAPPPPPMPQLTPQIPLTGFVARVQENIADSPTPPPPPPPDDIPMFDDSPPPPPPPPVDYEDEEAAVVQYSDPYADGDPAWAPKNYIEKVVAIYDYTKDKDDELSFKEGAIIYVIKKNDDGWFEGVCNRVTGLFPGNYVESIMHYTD
UniProt Q7TMB8: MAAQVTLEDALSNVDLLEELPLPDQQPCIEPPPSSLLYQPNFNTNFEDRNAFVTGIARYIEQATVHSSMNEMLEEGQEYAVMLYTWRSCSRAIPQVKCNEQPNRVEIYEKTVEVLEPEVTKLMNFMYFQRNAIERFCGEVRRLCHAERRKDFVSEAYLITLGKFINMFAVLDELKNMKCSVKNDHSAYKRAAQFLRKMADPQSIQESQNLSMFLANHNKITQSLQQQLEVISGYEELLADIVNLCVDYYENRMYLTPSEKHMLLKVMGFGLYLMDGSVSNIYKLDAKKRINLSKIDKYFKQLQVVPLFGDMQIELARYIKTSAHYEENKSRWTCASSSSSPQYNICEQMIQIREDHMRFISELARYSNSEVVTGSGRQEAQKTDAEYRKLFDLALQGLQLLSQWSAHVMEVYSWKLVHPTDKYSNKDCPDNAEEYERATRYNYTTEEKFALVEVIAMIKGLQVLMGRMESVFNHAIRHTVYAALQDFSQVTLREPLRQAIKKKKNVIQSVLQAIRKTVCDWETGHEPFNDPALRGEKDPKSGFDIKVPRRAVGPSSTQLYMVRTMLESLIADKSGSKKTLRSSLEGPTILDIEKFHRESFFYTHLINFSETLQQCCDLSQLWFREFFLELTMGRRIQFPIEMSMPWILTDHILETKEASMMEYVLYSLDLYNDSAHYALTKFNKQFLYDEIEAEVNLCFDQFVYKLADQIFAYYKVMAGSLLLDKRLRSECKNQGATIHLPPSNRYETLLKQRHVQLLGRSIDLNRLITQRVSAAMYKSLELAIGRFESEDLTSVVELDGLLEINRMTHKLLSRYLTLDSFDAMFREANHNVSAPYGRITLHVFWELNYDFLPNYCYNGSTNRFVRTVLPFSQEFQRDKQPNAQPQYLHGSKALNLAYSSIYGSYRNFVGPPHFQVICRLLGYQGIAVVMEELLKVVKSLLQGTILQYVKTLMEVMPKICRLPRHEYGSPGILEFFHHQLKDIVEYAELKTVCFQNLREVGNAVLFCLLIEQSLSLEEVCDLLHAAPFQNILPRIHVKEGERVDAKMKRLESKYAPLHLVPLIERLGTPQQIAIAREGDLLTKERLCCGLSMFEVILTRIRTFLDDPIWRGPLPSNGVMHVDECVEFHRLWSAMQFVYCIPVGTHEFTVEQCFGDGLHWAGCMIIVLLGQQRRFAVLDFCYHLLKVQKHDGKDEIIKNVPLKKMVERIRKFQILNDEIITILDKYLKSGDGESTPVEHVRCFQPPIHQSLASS
UniProt Q5SQX6: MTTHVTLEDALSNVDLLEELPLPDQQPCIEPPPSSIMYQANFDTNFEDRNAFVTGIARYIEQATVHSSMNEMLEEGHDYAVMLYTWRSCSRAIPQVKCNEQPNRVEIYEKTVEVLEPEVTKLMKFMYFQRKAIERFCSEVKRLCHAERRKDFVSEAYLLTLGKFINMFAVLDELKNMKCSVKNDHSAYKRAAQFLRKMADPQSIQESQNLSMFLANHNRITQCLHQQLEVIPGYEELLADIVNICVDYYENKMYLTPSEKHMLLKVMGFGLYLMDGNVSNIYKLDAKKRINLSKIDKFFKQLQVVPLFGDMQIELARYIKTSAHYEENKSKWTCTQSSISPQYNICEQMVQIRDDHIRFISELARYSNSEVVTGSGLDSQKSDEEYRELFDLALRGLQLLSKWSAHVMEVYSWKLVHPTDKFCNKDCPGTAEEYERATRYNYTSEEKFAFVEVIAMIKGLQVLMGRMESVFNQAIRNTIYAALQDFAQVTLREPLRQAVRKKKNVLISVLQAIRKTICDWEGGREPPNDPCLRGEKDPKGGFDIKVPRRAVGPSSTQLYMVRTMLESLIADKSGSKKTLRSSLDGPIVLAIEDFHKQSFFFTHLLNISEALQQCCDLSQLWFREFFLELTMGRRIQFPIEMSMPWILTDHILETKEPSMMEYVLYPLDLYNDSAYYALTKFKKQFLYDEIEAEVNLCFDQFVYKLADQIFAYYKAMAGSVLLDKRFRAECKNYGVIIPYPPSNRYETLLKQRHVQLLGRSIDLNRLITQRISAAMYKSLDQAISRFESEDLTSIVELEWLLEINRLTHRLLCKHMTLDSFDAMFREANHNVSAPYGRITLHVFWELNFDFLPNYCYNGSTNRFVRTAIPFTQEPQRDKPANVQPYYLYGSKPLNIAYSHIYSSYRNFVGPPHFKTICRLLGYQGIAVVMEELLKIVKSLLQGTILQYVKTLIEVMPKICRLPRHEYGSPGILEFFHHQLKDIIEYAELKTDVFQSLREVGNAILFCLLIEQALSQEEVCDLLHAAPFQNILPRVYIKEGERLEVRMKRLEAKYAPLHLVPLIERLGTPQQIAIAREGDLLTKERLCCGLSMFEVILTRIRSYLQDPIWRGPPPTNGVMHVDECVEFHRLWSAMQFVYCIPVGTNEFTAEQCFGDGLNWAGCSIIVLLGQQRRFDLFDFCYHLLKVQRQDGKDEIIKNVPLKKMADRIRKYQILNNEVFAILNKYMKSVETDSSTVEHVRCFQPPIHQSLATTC
UniProt Q8BH43: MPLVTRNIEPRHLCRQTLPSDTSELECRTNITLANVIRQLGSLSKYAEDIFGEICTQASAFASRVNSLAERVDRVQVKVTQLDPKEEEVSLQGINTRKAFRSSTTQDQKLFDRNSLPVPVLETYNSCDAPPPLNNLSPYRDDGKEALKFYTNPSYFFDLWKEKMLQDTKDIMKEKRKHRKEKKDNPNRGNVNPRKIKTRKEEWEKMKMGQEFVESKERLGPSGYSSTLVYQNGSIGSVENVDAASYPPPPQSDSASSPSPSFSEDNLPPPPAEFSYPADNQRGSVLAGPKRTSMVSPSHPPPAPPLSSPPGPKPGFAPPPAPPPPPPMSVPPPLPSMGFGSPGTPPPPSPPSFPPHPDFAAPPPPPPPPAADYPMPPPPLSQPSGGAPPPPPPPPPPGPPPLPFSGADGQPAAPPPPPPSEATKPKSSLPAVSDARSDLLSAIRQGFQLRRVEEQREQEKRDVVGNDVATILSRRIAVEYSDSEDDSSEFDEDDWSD
UniProt O08808: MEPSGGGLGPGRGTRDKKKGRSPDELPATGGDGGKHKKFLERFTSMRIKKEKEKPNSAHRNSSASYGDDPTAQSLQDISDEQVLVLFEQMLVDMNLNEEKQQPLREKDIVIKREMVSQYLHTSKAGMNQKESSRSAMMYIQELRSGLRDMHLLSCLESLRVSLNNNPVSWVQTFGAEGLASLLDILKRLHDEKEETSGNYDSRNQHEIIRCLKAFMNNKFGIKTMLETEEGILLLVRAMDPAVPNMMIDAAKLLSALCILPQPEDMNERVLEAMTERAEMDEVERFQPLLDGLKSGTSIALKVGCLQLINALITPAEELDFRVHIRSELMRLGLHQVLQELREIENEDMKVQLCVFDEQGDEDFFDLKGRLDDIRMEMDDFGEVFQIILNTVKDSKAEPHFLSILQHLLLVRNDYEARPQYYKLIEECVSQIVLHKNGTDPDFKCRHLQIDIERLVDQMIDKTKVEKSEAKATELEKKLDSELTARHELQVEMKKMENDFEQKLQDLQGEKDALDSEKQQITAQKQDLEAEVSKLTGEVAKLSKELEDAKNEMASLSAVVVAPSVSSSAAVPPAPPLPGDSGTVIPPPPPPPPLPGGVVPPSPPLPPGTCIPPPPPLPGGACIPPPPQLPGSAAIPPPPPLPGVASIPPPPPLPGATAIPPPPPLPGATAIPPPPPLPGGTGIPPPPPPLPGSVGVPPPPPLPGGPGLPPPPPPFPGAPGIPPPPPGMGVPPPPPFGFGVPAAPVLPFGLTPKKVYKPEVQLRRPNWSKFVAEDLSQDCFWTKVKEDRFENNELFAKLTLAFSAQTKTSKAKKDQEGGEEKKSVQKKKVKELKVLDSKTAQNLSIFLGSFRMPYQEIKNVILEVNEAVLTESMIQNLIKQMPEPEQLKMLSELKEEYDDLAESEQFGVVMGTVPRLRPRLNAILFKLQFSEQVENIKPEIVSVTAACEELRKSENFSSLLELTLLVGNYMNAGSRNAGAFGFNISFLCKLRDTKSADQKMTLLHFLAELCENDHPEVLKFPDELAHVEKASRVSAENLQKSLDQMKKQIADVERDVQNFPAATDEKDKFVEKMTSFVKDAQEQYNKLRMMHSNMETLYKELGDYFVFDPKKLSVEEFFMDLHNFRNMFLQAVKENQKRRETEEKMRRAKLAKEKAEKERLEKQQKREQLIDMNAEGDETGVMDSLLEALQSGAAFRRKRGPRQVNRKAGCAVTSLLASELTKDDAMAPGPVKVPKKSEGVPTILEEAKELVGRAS

B1: Hem2/Nckap1/Nap1 (protein, UniProt P28660 1-1128)
chain: MSRSVLQPSQQKLAEKLTILNDRGVGMLTRLYNIKKACGDPKAKPSYLIDKNLESAVKFIVRKFPAVETRNNNQQLAQLQKEKSEILKNLALYYFTFVDVMEFKDHVCDLLNTIDVCQVFFDITVNFDLTKNYLDLTVTYTTLMILLSRIEERKAIIGLYNYAHEMTHGASDREYPRLGQMIVDYENPLKKMMEEFVPHSKSLSDALISLQMVYPRRNLSADQWRNAQLLSLISAPSTMLNPAQSDTMPCEYLSLDAMEKWIIFGFILCHGMLNTEATALNLWKLALQSSSCLSLFRDEVFHIHKAAEDLFVNIRGYNKRINDIRECKEAAVSHAGSMHRERRKFLRSALKELATVLSDQPGLLGPKALFVFMALSFARDEIIWLLRHADNMPKKSADDFIDKHIAELIFYMEELRAHVRKYGPVMQRYYVQYLSGFDAVVLNELVQNLSVCPEDESIIMSSFVNTMTSLSVKQVEDGEVFDFRGMRLDWFRLQAYTSVSKASLSLADHRELGKMMNTIIFHTKMVDSLVEMLVETSDLSIFCFYSRAFEKMFQQCLELPSQSRYSIAFPLLCTHFMSCTHELCPEERHHIGDRSLSLCNMFLDEMAKQARNLITDICTEQCTLSDQLLPKHCAKTISQAVNKKSKKQTGKKGEPEREKPGVESMRKNRLVVTNLDKLHTALSELCFSINYVPNMAVWEHTFTPREYLTSHLEIRFTKSIVGMTMYNQATQEIAKPSELLTSVRAYMTVLQSIENYVQIDITRVFNNVLLQQTQHLDSHGEPTITSLYTNWYLETLLRQVSNGHIAYFPAMKAFVNLPTENELTFNAEEYSDISEMRSLSELLGPYGMKFLSESLMWHISSQVAELKKLVVENVDVLTQMRTSFDKPDQMAALFKRLSSVDSVLKRMTIIGVILSFRSLAQEALRDVLSYHIPFLVSSIEDFKDHIPRETDMKVAMNVYELSSAAGLPCEIDPALVVALSSQKSENISPEEEYKIACLLMVFVAVSLPTLASNVMSQYSPAIEGHCNNIHCLAKAINQIAAALFTIHKGSIEDRLKEFLALASSSLLKIGQETDKTTTRNRESVYLLLDMIVQESPFLTMDLLESCFPYVLLRNAYHAVYKQSVTSSA
B2: Abi3 (protein, UniProt Q8BYZ1 1-367)
chain: MAELQQLQQLQEFDIPTGREALRGNHSALLRVANYCEDNYLQATDKRKALEETMAFTTQALASVAYQVGNLAGHTLRMLDLQGAALRQVEAKMSTLGQMVNMHMEKVARREIGTLATVVRLPSNQKVIPPESLPSLTPYHRKPLNFACLDDIGHGVKDLSTQLSRTGTLSRKSIKAPATPVSATLGRPPRIPEPVQLPAVPDGKLSAASSASSLASAGSAEGASGIPQSKGQVAPATPPPPPVAPVTPPPPPLSAEVFLPPPPLEVSQPPLEAELPLPPPPALEGDELGLLPPPPPGFGPDEPSWVPASYLEKVVTLYPYTRQKDNELSFSEGTVICVTRRYSDGWCEGVSSEGTGFFPGNYVEPSC
B3: Lamellipodin/Raph1 (protein, UniProt F2Z3U3 1-1266)
chain: MEQLSDEEIDHGAEEDSDKEDQDLDKMFGAWLGELDRLTQSLDSDKPKEPVKRSPLRQETNMANFSYRFSIYNLNEALNQGETVDLDALMADLCSIEQELSSIGSGNSKRQVTEPKVPQKLPAGRHTSKHGTLRGPSSSSNRTTKPSHANYSLDDITAQLEQASLSMDEAAQQSLVEDPKPLVTNQHRRTASAGTVSDAEARSISNSSRSSITSAASSMDSLDIDKVTRPQELDLTTHQGQPITEEEQAAKLKAEKIRVALEKIKEAQVKKLVIRVHMSDDSSKTMMVDERQTVRQVLDNLMDKSHCGYSLDWSLVETISELQMERIFEDHENLVENLLNWTRDSQNKLIFMERIEKYALFKNPQNYLLGKKETAEMADRNKEVLLEECFCGSSVTVPEIEGVLWLKDDGKKSWKKRYFLLRASGIYYVPKGKAKVSRDLVCFLQLDHVNVYYGQDYRNKYKAPTDCCLALKHPQIQKKSQYIKYLCCDDARTLHQWVNGIRIAKYGKQLYTNYQEALKRTESAYDWTSLSSSSIKSGSSSSSIPESQSNHSNQSDSGVSDTLPTGHIRSQSTVSSIFSEAWKRGTQLEESSKARMESMNRSYTSLMPPLSPQTKIITPYTASQPSPPLPPPPPPPPPPPPPPPPPPPPLPSQSAPSSGSAATMFVKYSTITRLQNAAQHSGTLFKSPTPPAMQPLPLASQSKAQIVVPPNGVIPPPPPPPPPPTPGSAMAQLKPVPCAPSLPQFSPQPPPLKIHQVQHLPQTAPPTPPPAPPITATVPPQAPPKPLVTIPPSASTKTVSPVVAQAVPPTPAPPVPPAKKQPVFPVSHIPPTPPVQPTPHPPPTLPKQQSFGVKPPPSPLSPVPSVVKQIASQFPPPPTPPPVDSQPLKSLPASGTPQSPPAVKAKPKWQPSSIPVPSPDFPPPPPESSLVFPPPPPPAPAPAPPPPPPPPPPPPPVPPTASPTPDKGGSPGKKTSKMSSPGGKKPPPTPQRNSSIKSGSCAEHPEPKRPSVDSLVSKFAPPAESGSPSKETPPPPAAPPKPGKLHLSGVNLPGIHQQGIVSAKASVLSGRGKDVVVEFPSPPSDSDFPPPPPEIELPLPPIEIPAVFSGNTSPKVAVVNPQPQLWSKTSVKKAPPPTRPKRNDSTRLTQADISEQPAMTTVVPQVPTSPKSSLSVQPGFLADLNRTLQRKSITRHGSLSSSRMSRAEPTATMDDMALPPPPPELLSDQQKAGFGGSHISGYATLRRGPPPAPPKRDQNTKLSRDW
B4: RIAM/Prel1/Apbblip (protein, UniProt Q8R5A3 1-670)
chain: MGESNEDIDQMFSTLLGEMDLLTQSLGVDTLPPPDPNPPREEFNYTVGFKDLNESLNALEDQDLDALMADLVADISEAEQRTIQAQKESSQNQDRFALLRASDGQGTASGGYGASAAAIDVSHHEEALPPPPVEPMLDLLPPPPPPPPPELLSKEEEEAKAKADKIKLALEKLKEAKVKKLVVKVHMDDSSTKSLMVDERQLARDVLDNLFEKTHCDCNVDWCLYEIYPELQIERVFEDHENVVEVLSDWTRDTENKVLFLEKEERYAVFKNPQNFYLDNKGKKENKETNEKMNAKNKEYLLEESFCGTSIIVPELEGALYLKEDGKKSWKRRYFLLRASGIYYVPKGKTKTSRDLACFIQFENVNIYYGIQCKMKYKAPTDHCFVLKHPQIQKESQYIKYLCCDDARTLSQWVMGIRIAKYGKTLYDNYQRAVARAGLASRWTNLGTVGTPMPAQPSTVSSGLKTGTSQPNGQMPQAIPSAGPPLQEAQTQIETTKDEKQGLGNHSPGATRENHRPKSSLPPPPPPVRRSSDTCGSPALPSKVKGPGTCTFPHPPENFLPPPPPPPPEEDNSGLLPPPPPPPYLEEPPDFVPPPPPPAAVEDSALPPPPPPPPCLSQEITKSSPLPPKKPLVPPKRQENQGLPGAPGNSEQDFMSDLMKALQKKRGNIP
B5: Hem1/Nckap1l/Nap2 (protein, UniProt Q8K1X4 1-1134)
chain: MSLTSAYQLKLAEKLTILNDRGQGVLIRMYNIKKTCSDSKSKPPFLLEKSMESCLKYINKKFPNIDVRNSTQHLGPVHREKAEIIRFLTNYYQSFVDVMEFRDHVYELLNTIDACQCHFDINLNFDFTRSYLDLIVTYTSVILLLSRIEDRRILIGMYNCAHEMLHGHSDPSFARLGQMVLEYDHPLKKLTEEFGPHTKAVSGALLSLHFLFVRRNQGAEQWRSAQLLSLISSPPAMINPANSDTMACEYLSVEVMERWIIIGFLLCHGCLNSNSQCQKLWKLCLEGSLYITLIREDVLQVHKVTEDLFSSLKGYSKRVADIKESKEHAITNSGQFHCQRRQFLRTAVKELETVLNDEPGLLGPKALFAFMALSFIRDEVTWLVRHTENVTKTKTPEDYADSSIAELLFLLEEIRALVRRHIKVIQQYHLQYLARFDVLVLSDIIQNLSVCPEEESVIMSSFVSILSSLNLKQVDNEEKFDFSGLRLDWFRLQAYTSVSKAPLHLHENPDLAKVMNLIIFHSQMLDSVEKMLVETSDLSTFCFHLRTFEKMFATTLEEPTMLRYTIAFPLICAHFVHCVHEMCPEEYPHLKNHGLHHCNSFLEDLAKQTSNCVLEICAEQRNLNEQLLPKHCATTISKAKNKKSMKQRQAPRKGEPERDKPGAESHRKNRSLVTNMDKLHLNLTELALAMNHVHSFSVFEHTIFPSEYLSSHLEARLNRAIVTLAGYNATTQEILRPSELLAGVKAYISFIQSLAQFLGADASRIVRNALLQQTQPLDSSGEQTVTTLYTNWYLESLLRQASSGAIVLSPAMQAFISLPRDGEQNFSAEEFSDISEMRALAEILGPYGMKFLSENLMWHVTSQIVELKKLVVENMDILVQIRSNFSKPELMASLLPQLTGAENVLKRMTIIGVILSFRAMAQEGLQEVFSAHCPFLMGPIECLKEFVTPDTDIKVTLSVFELACAAGVSCDIDPALVAAIANLKADNSSPEEEYKVACLLLIFLAVSLPLLATDPSSFFSIEKDGYNNNIHCLTKAIIQVSAALFTLYNKNIETHLKEFLVVASVSLLQLGQETDKLKTRNRESISLLMRLVVEESPFLTLDMLESCFPYVLLRNAYREVSRAFYLNRLPASSH

target: GST-tagged VASP-EVH1 domain (UniProt P50552); assay: affinity purification with mass spectrometry; GST-VASP-EVH1 on GST-bind resin beads incubated with lysates of immature or mature (LPS-treated) DCs in RIPA buffer (10 mM HEPES, 50 mM NaCl, 1% NP-40, 0.5% DOC, 0.1% SDS, pH 7.7), with or without 100 µM EVH1-specific inhibitor ProM; eluates by LC/MS, label-free quantification; hits: enriched over, or absent from, the inhibitor-treated sample; two independent experiments; only the target purified

| binding | Molecule |
| --- | --- |
| binds | Abi1 (from UniProt Q8CBW3 1-481) |
| binds | Cyfip1 (from UniProt Q7TMB8 1-1253) |
| binds | Cyfip2 (from UniProt Q5SQX6 1-1253) |
| binds | Wave2/Scar2/Wasf2 (from UniProt Q8BH43 1-497) |
| binds | mDia1/Diaph1 (from UniProt O08808 1-1255) |
| binds | B1 |
| binds | B2 |
| binds | B3 |
| binds | B4 |
| binds | B5 |
